These are yes or no findings as the source states them, for the method shown. In cells and extracts the contact can be indirect. Some binding calls cover weakened binding; strength is not graded here.
Biological target: kinesin heavy chain (KHC) subunit of conventional kinesin (Doryteuthis pealeii (endogenous in squid axoplasm)) (UniProt P21613)
Assay: co-IP; anti-KHC antibody (H2) and protein-G beads from clarified lysates of squid axoplasms perfused with P^32-γ ATP and 500 nM GST or GST–AICD; washed with 50 mM HEPES, 200 mM NaCl, 0.5% Triton X-100, pH 7.4; SDS-PAGE and autoradiography

Protein sequences, listed by entry. Tags and fused reporters are not part of them.
UniProt P21613: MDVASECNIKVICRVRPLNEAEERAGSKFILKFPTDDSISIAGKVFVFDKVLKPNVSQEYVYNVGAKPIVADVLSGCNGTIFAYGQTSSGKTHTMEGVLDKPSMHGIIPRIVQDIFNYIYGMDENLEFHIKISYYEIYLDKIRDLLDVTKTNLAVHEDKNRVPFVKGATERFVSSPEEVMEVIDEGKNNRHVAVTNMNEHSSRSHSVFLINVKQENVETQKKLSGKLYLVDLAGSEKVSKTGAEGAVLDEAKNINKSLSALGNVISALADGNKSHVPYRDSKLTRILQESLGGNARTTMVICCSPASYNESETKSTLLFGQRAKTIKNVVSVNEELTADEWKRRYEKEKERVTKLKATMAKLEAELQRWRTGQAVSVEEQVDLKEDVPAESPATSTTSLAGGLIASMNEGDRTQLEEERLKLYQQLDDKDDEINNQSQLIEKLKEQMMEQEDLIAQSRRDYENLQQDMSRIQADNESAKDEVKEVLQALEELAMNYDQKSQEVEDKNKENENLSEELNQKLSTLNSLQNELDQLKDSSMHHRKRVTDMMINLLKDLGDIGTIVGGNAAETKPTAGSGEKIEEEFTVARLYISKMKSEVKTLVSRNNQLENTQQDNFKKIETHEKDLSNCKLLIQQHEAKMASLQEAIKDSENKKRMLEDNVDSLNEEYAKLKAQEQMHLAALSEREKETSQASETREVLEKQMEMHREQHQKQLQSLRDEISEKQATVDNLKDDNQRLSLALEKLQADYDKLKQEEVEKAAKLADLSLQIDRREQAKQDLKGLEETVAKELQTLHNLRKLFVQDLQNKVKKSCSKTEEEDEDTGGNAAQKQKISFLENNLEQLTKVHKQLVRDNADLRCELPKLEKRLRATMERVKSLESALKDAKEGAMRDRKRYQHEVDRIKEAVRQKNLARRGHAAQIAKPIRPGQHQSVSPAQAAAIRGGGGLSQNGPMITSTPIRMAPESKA

- binding: binds
B1: kinesin light chain (KLC) subunit of conventional kinesin (protein, UniProt P46825 1-571)
chain: MEVTQTVKSYRIKKIEEIGKMTALSQEEIISNTKTVIQGLDTLKNEHNQILNSLLTSMKTIRKENGDTNLVEEKANILKKSVDSIELGLGEAQVMMALANHLQHTEAEKQKLRAQVRRLCQENAWLRDELANTQQKLQMSEQKVATIEEEKKHLEFMNEMKKYDTNEAQVNEEKESEQSSLDLGFPDDDDDGGQPEVLSPTQPSAMAQAASGGCEIPARLRTLHNLVIQYASQGRYEVAVPLCKQALEDLEKTSGHDHPDVATMLNILALVYRDQGKYKEAANLLNDALGIREKTLGPDHPAVAATLNNLAVLYGKRGKYKDAEPLCKRALVIREKVLGKDHPDVAKQLNNLALLCQNQGKYEEVERYYQRALEIYQKELGPDDPNVAKTKNNLASAYLKQGKYKQAEILYKEVLTRAHEKEFGKVDDDNKPIWMQAEEREENKAKYKDGAPQPDYGSWLKAVKVDSPTVTTTLKNLGALYRRQGKYEAAETLEECALRSRKSALEVVRQTKISDVLGSDFSKGQSPKDRKRSNSRDRNRRDSMDSVSYEKSGDGDEHEKSKLHVGTSHKQ
modifications: P^32-radiolabeled (phosphorylated in axoplasm with P^32-γ ATP), sites not stated

From publication PMC10572015
